# Measurements published in patent US8765695B2, “Use of ginsenoside RG1, its metabolites ginsenoside RH1 and/or PPT” (priority 2007, dated 2014).
# For at least one compound, name, drawing or mass did not settle the structure.
# Key:
# healthy men aged 30-50 = assay: Improving sexual function of men, study in volunteers; type: in vivo, human; conditions: 100-200 mg/d, 5th day after administration
# Text: The effect of ginsenoside Rg1 on improving sexual function of men had been studied in a few of volunteers (healthy men aged 30-50).
# PDE5 = PDE5 (Homo sapiens, UniProt O76074); assay: Inhibition effect on PDE5 (cGMP degradation, radioimmune autograph technique); type: biochemical
# [1] = tested on: cGMP in corpus cavernosum; assay: cGMP content under co-action of sodium nitroprusside (NO donor) and ginsenoside Rg1; conditions: sodium nitroprusside at the same dose, vs control group
smiles,measurement,setting,value
"CC(C)=CCC[C@](C)(O[C@@H]1O[C@H](CO)[C@@H](O)[C@H](O)[C@H]1O)[C@H]1CC[C@]2(C)[C@@H]1[C@H](O)C[C@@H]1[C@@]3(C)CC[C@H](O)C(C)(C)[C@@H]3[C@@H](O[C@@H]3O[C@H](CO)[C@@H](O)[C@H](O)[C@H]3O)C[C@]12C [Rg1, ginsenoside Rg1]",sexuality of volunteers,healthy men aged 30-50,significantly improved sexuality
same,inhibition effect on PDE5 compared with Sildenafil,PDE5,no significant difference
same,cGMP content under co-action with sodium nitroprusside,[1],higher cGMP content than the control group
